Reference: article PMC11840119
Results are given in words; binding and its absence hold for the method and conditions named. In cells and extracts the contact can be indirect. Some results given as binding are weak or reduced against the parent protein; the word gives no strength.

Biological target: T1, Lon protease 1 (LONP1) (human (endogenous in PC3 and DU145)) (UniProt P36776)
T1 sequence: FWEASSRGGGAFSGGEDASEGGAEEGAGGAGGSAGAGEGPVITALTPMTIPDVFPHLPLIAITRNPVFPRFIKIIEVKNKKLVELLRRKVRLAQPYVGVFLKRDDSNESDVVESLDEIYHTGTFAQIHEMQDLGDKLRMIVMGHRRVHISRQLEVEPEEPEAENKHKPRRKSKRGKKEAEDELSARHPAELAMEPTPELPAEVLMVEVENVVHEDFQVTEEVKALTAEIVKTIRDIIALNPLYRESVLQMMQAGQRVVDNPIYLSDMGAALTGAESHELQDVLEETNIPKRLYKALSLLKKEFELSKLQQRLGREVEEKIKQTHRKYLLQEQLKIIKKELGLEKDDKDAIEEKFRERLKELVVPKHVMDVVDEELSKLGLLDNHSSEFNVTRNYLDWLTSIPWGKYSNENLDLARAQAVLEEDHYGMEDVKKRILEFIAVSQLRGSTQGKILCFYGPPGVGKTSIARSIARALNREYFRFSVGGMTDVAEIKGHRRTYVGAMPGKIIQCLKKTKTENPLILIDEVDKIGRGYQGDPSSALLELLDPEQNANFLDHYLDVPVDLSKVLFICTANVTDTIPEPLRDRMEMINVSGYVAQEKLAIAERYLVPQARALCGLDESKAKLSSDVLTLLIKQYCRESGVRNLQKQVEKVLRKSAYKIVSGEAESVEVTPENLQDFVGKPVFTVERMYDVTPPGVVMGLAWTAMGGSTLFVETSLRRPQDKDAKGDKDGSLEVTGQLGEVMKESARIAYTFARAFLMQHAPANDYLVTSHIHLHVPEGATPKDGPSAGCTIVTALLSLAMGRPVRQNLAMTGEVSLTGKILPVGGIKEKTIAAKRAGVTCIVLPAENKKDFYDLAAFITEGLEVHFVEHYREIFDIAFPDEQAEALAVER
Assay: co-IP; endogenous proteins in whole cell lysates of PC3 and DU145 cells; lysis buffer 1% NP-40, 50 mM Tris-HCl pH 7.4, 150 mM NaCl, 5 mM EDTA, 0.02% SDS; primary antibody or IgG control overnight at 4 °C, protein A/G agarose beads, PBS washes, Western blot

binding: binds
B1: mitochondrial pyruvate carrier 1 (MPC1) (protein, UniProt Q9Y5U8 1-109)
chain: MAGALVRKAADYVRSKDFRDYLMSTHFWGPVANWGLPIAAINDMKKSPEIISGRMTFALCCYSLTFMRFAYKVQPRNWLLFACHATNEVAQLIQGGRLIKHEMTKTASA
